{
  "source": "patent US20250043290A1",
  "about": "“RNA SEQUENCES THAT INDUCE FLUORESCENCE OF SMALL MOLECULE FLUOROPHORES, MOLECULAR COMPLEXES, SENSORS, AND METHODS OF USE THEREOF” (CORNELL UNIVERSITY, priority 2021, published 2025)",
  "key": {"HEK293T cells": {"system": "HEK293T cells", "assay": "Background fluorescence of dye incubated with cells", "assay_type": "cell-based", "settings": "10 μM", "method": "FIG. 31A is a graph showing the results of an experiment evaluating fluorescence of DFAME when mixed with cells. An important criteria for a fluorogenic dye is that it must have very low fluorescence when mixed with cells. To test this, 10 μM DFAME was incubated with cultured HEK293T cells and the fluorescence intensity of the DFAME-incubated cells was measured. […] Although the background fluorescence in cells induced by DFAME (n=48 cells) was higher than DFHO (n=47 cells) or DFHBI-1T (n=44 cells), it was reasoned that DFAME could be used if enough fluorogenic aptamer is used in cells. Data were collected from three independent cell cultures. Values are means±s.d. FIG. 31B is a graph showing the cytotoxicity of DFAME. To apply a fluorogenic dye in cells, it is critical that this dye has minimal cytotoxicity. To test the cytotoxicity of DFAME, HEK293T cells were first incubated with 10 μM DFAME, then illuminated for 10 minutes using a Nikon Intensilight C-HGFIE 130 W mercury lamp with the TRITC filter set. Control cells were illuminated under identical conditions either with 0.2% DMSO (illuminated with the TRITC filter set) or 10 μM malachite green (illuminated with the Cy5 filter set). […] MTT absorbance readings were performed at 550 nm with 650 nm absorbance used for background subtraction. […]"}, "mES cells": {"system": "mES cells", "assay": "Ratiometric SAM imaging in mES cells", "assay_type": "cell-based, Mouse", "settings": "sensor 4-2"}},
  "note": "Entries after “also recorded” stand apart in the source; their conditions may differ.",
  "data": [
    {"compound": "COC(=O)/C=C/C1=NC(=C\\c2cc(F)c(O)c(F)c2)/C(=O)N1C", "note": "[DFAME, methyl 3-((Z)-4-(3,5-difluoro-4-hydroxybenzylidene)-1-methyl-5-oxo-4,5-dihydro-1H-imidazol-2-yl)acrylate]", "values": [
      {"measurement": "Fluorescence of dye-incubated cells", "setting": "HEK293T cells", "value": "measurable but low levels of red fluorescence; also recorded: measurable, but low levels of red fluorescence"}
    ]},
    {"compound": "C[S+](CC[C@H](N)C(=O)O)C[C@H]1O[C@@H](n2cnc3c(N)ncnc32)[C@H](O)[C@@H]1O", "note": "(stereo partly drawn) [SAM, S-adenosylmethionine]", "values": [
      {"measurement": "Intracellular SAM concentration", "setting": "mES cells; +2i media", "value": "40 to 70", "unit": "µM"},
      {"measurement": "Intracellular SAM concentration", "setting": "mES cells; −2i media", "value": "10 to 120", "unit": "µM"}
    ]}
  ]
}
